Patent publication US20230279355A1, “METHOD FOR THE IN VITRO OR EX VIVO AMPLIFICATION OF STEM CELLS OF BROWN OR BEIGE ADIPOCYTES” (CENTRE NATIONAL DE LA RECHERCHE SCIENTIFIQUE, priority 2020, published 2023)
At least one compound was matched to its structure with a doubt left.

System: hASCs
Assay: differentiation of hASCs into adipocytes (PLIN1, UCP1 expression)
Assay type: cell-based, human
Procedure: In order to determine the differentiation medium, different media were tested. These media were enriched with adipogenic factors then tested for the differentiation of the hASCs. […] It should also be noted that the medium n° 5 is an option to the EGM+ which has not been pursued further.

CN(CCOc1ccc(CC2SC(=O)NC2=O)cc1)c1ccccn1 (centres unmarked) [Rosiglitazone]
expression of UCP1 (Rosiglitazone only present for the first three days): very low
expression of UCP1 (addition of SB431542 and maintenance of Rosiglitazone): allows the expression of UCP1
